According to paper doi:10.1101/490318:

B1: RRP1 (protein, UniProt P56183 1-494)
chain: MVPGVPLPPEIQLAQRLAGNEQVTRDRALRKLRKYIEARSQRATGGFTPDELLKVWKGLFYCMWMQDKPLQQEELGRTIAQLVHAFHTTEAQHQFLKAFWQTMIREWVGIDRLRLDKFYMLMRMVLSESLKAVKARGWDERQIEQLLELLTTEILNPDSQAPSGVKSHFLEIFLEELAKVGAAELTADQNLQFIDPFCQIAARTKDSQVLHKIIQSIFQTIVEQAPLAIEDIMNELDTQSGEGEASDGDDGEASDGDDGEASDDDDGEASDGGDGDVADSDDSDGADDDDGDVSDGDGGDNDEGDSNKSSEGEQDLQDTPPKKLPAGTAHRAGPEADKEQAWDDEENAGPVLQFDYEALANRLFKLASRQSTPSQNRKRLYKVIQKLRELAGGTFPEDDVPEKAYKKMLEGRRERKKKKKRLPKPQPQNKEAGSEAESSSADPGPGRKRKRNRKTDEKAGQGGPPGKRRKPGARAKGAGAQQPKKRIQSSQSAE
B2: BRX1 (protein, UniProt Q9DCA5 1-353)
chain: MAATKRKRRGGLEVQAKKPKRSSKDAGQPAKQADVAKEAEEENRDRIPGPVCKGKWKNKERILIFSSRGINFRTRHLMQDLRMLMPHSKADTKMDRKDKLFVINEVCEMKNCNKCIYFEAKKKQDLYMWLSNSPHGPSAKFLVQNIHTLAELKMTGNCLKGSRPLLSFDPAFDDLPHYALLKEFLIQIFSTPRYHPKSQPFVDHVFTFTILDNRIWFRNFQIIEEDAALVEIGPRFVLNLIKIFQGSFGGPTLYENPHYQSPNMHRRVIRSITAAKYRERQQVKDVQKLRKKEPKTILPHDPTADVFVIPAEEKPVEIQWVKPEPKVDLKARKRRIYKRHRKLQQKMSRGSAK
B3: RRP9 (protein, UniProt Q91WM3 1-475)
chain: MSTAVATRKRAKPAPGPGAAPVAGKRRRKVDSAADRGKSKGGGKMNEEISSDSESESLAPRKTEEEEEEELEETAQEKKLRLAKLYLEQLRQQEEEKAEARAFEEDQVAGRLKEDVLEQRGRLQKSVAKEIQAPAPTDIRVLRGHQLSITCLVITPDDLAIFSAAKDCTIIKWSVETGRKLHVIPRAKKGAQGQPAGHSSHVLCMAISSDGKYLASGDRSKLILIWEAQSCQHLYTFTGHRDAVSGLAFRKGTHQLYSTSHDRSVKVWNAAENSYVETLFGHQDAVAALDALSRECCVTAGGRDGTVRVWKIPEESQLVFYGHQGSIDCIHLINEEHMVSGADDGSVALWGLSKKRPLALQREAHGLHGEPGLEQPFWVSSVAALLNTDLVATGSHNARVRLWQCGEGFRQLDPLCDIPLVGFINSLKFSSAGDFLVAGVGQEHRLGRWWRIKEARNSVCIIPLRRLPVSPVAGS
B4: ZC3HAV1 (protein, UniProt Q3UPF5 1-996)
chain: MTDPEVFCFITKILCAHGGRMTLEELLGEISLPEAQLYELLKAAGPDRFVLLETGDQAGITRSVVATTRARVCRRKYCQRPCDSLHLCKLNLLGRCHYAQSQRNLCKYSHDVLSEQNFQVLKNHELSGLNQEELAVLLVQSDPFFMPEICKSYKGEGRKQICGQPQPCERLHICEHFTRGNCSYLNCLRSHNLMDRKVLAIMREHGLSSDVVQNIQDICNNKHTRRNPPSMRAPHPHRRGGAHRDRSKSRDRFHHNSLEVLSTVSPLGSGPPSPDVTGCKDPLEDVSADVTQKFKYLGTQDRAQLSSVSSKAAGVRGPSQMRASQEFLEDGDPDGLFSRNRSDSSTSRTSAAGFPLVAAQRNEAGAMKMGMPSGHHVEVKGKNEDIDRVPFLNSYIDGVTMEEATVSGILGKRATDNGLEEMILSSNHQKSVAKTQDPQTAGRITDSGQDTAFLHSKYEENPAWPGTSTHNGPNGFSQIMDETPNVSKSSPTGFGIKSAVTGGKEAVYSGVQSLRSHVLAMPGETTTPVQGSNRLPPSPLSSSTSHRVAASGSPGKSSTHASVSPASEPSRMMMMMSDPAEYSLCYIVNPVSPRMDDHGLKEICLDHLYRGCQQVNCNKNHFHLPYRWQLFILPTWMDFQDMEYIERAYCDPQIEIIVIEKHRINFKKMTCDSYPIRRLSTPSFVEKTLNSVFTTKWLWYWRNELNEYTQYGHESPSHTSSEINSAYLESFFHSCPRGVLQFHAGSQNYELSFQGMIQTNIASKTQRHVVRRPVFVSSKDVEQKRRGPDHQPVMPQADALTLFSSPQRNASTVSSNEYEFIELNNQDEEYAKISEQFKASMKQFKIVTIKRIWNQKLWDTFERKKQKMKNKTEMFLFHAVGRIHMDYICKNNFEWILHGNREIRYGKGNYFTKEAMYSHKSCSYDSRGTVMFVARVLVGSVIEGNMTLSSPPALYDSCVDTRLNPSVFVIFRKEQIYPEYVIEYMELEKEKGCIIS
B5: Ddx47 (protein, UniProt Q9CWX9 1-455)
chain: MAADEEPDSPSGALQTAAEEEETKTFKDLGVTDVLCEACDQLGWAKPTKIQIEAIPLALQGRDIIGLAETGSGKTGAFALPILNALLETPQRLFALVLTPTRELAFQISEQFEALGSSIGVQCAVIVGGIDSMSQSLALAKKPHIVIATPGRLIDHLENTKGFNLRALKYLVMDEADRILNMDFETEVDKILKVIPRDRKTFLFSATMTKKVQKLQRAALKNPVKCAVSSKYQTVEKLQQYYLFIPSKFKDTYLVYILNELAGNSFMIFCSTCNNTQRTALLLRNLGFTAIPLHGQMSQSKRLGSLNKFKAKARSILLATDVASRGLDIPHVDVVVNFDIPTHSKDYIHRVGRTARAGRSGKAITFVTQYDVELFQRIEHLIGKKLPVFPTQDEEVMMLTERVNEAQRFARMELREHGEKKKRKREDAGDDDDKEGAIGVRNKVAGGKMKKRKGR
B6: RRP8 (protein, UniProt Q9DB85 1-457)
chain: MFEEPEWVEAAPAIVGLGAATAQVRPATAPPVKGRKRRHLLATLRALEAASLSQQTPSLPGSDSEEEEEVGRKKRHLQRPSLASVSKEVGKKRKGKCQKQAPSISDSEGKEIRRKCHRQAPPLGGVSAGEEKGKRKCQEYSSLHLTQPLDSVDQTVHNSRTSTATIDPSKPSPESMSPNSSHTLSRKQWRNRQKNKRRHKNKFRPLQTPEQAPPKASIEETEVPPVPKSDSQESRAGALRARMTQRLDGARFRYLNEQLYSGPSSAARRLFQEDPEAFLLYHRGFQRQVKKWPLHPVDRIAKDLRQKPASLVVADFGCGDCRLASSVRNPVHCFDLASLDPRVTVCDMAQVPLEDESVDVAVFCLSLMGTNIRDFLEEANRVLKTGGLLKVAEVSSRFEDIRTFLGAVTKLGFKIIYKDLTNSHFFLFDFEKTGPPRVGPKAQLSGLKLQPCLYKRR
B7: Rrs1 (protein, UniProt Q9CYH6 1-365)
chain: MEGQRVEELLAKAEQEEAEKLQRITVHKELELEFDLGNLLASDRNPPTVLRQAGPSPEAELRALARDNTQLLINQLWRLPTERVEEAVVARLPEPATRLPREKPLPRPRPLTRWQQFARLKGIRPKKKTNLVWDEASGQWRRRWGYKRARDDTKEWLIEVPGSADPMEDQFAKRTQAKKERVAKNELNRLRNLARAHKMQMPSSAGLHPTGHQSKEELGRAMQVAKVSTASVGRFQERLPKEKAPRGSGKKRKFQPLFGDFAAEKKNQLELLRVMNSKKPRLDVTRATNKQMREEDQEEAAKRRKMSQKGKRKGGRQGPSGKRKGGPPGQGEKRKGGLGSKKHSWPSALAGKKKGVPPQGGKRRK
B8: NUFP2 (protein, UniProt Q5F2E7 1-692)
chain: MEEKPGQPQPQHHHSHHHPHHHPQQQQQQQSHHHHHYYFYNHSHNHHHHHHHQQPHQYLQHGAEGSPKAQPKPLKHEQKHTLQQHQETPKKKTGYGEINGNAGEREISLKSLSSDEATNPISRVLNGNQQVVETSLKQTVKTSTFGKAGIKTKNFIQKNSMDKKNGKSYENKSGETQAVDKTDTIAIPNGVITSSSGYITNGYMSKGADNDGSGSESGYTTPKKRKARRNSAKGCENLNLVQDKIMQETSVPALKQGLETLKPDYSEQKGMRVDGSKPIWKYETGPGGTSRGKPAMGDVLRKSSDIKPGLSSKKFDDRPKGKHASAAASKEDSWTLFKPPPVFPVDNSSAKIVPKISYASKVKENLNKTVQNSSVSPSSSSSSSSTGETQTQSSSRLSQVPMSALKSVTSASFSNGPVLAGTDGSVYPSGGQPLLTTAANTLTPISTGTDSVLQDMSLASAAVEQIKSSLFIYPSNMQTVLLSAQVDLPSQTDQQNLGDIFQNQWGLSFINEPSAGPETVIGKSSDHKVMEVTFQGEYPATLVSQGAEIIPSGTEHPVFPKAYELEKRTSPQVLGHILKPGTTESGALSLDPSHIGDLQKADTSSQGALVFLSKDYEIENQNPLASPTNTLLGSAKEQRYQRGLERNDSWGSFDLRAAIVYHTKEMESIWNLQKQDPKRIITYNEAMDSPDQ
B9: Ddx27 (protein, UniProt Q921N6 1-760)
chain: MLAELGFIRTIGENDEVPVEPESDSGDEEEEGPIVLGRKQKALQKNRSADFNPDFVFTEKEGMYDGSWALADVMSQLKKKRAATTLDEKIEKVRKRRKAEDKEAKSGKVEEKEGQADSDLKGQENPGEDEAGSKDEDSETDYSSEDEEILTKADTLKVKEKKKKKKGQAAGGFFEDASEYDKSLSFQDMNLSRPLLKAITAMGFKQPTPIQKACIPVGLLGKDICACAATGTGKTAAFALPVLERLIYKPRQAAVTRVLVLVPTRELGIQVHSVTKQLAQFCSITTCLAVGGLDVKSQEAALRAAPDILIATPGRLIDHLHNCPSFHLSSIEVLILDEADRMLDEYFEEQMKEIIRMCSHHRQTMLFSATMTDEVKDLASVSLKNPVRIFVNSNTDVAPFLRQEFIRIRPNREGDREAIVAALLMRTFTDHVMLFTQTKKQAHRMHILLGLLGLQVGELHGNLSQTQRLEALRRFKDEQIDILVATDVAARGLDIEGVKTVINFTMPNTVKHYVHRVGRTARAGRAGRSVSLVGEEERKMLKEIVKAAKAPVKARILPQDVILKFRDKIEKLEKDVYAVLQLEAEEKEMQQSEAQIDTAQRLLAKGKETADQEPERSWFQTKEERKKEKIAKALQEFDLALRGKKKRKKFMKDAKKKGEMTAEERSQFEILKAQMFAERLAKRNRRTKRARAMPEDEPTGPAKKQKQQQKSVFDEELTNTSKKALKQYRAGPSFEERKQSGLPRQRRGNFKSKSRYKRKK
B10: BST2 (protein, UniProt Q8R2Q8 1-152)
chain: MAPSFYHYLPVPMDEMGGKQGWGSHRQWLGAAILVVLFGVTLVILTIYFAVTANSVACRDGLRAQAECRNTTHLLQRQLTRTQDSLLQAETQANSCNLTVVTLQESLEKKVSQALEQQARIKELENEVTKLNQELENLRIQKETSSTVQVNS
B11: Ddx51 (protein, UniProt Q6P9R1 1-639)
chain: MALFHIARYAGPEAAGQGDTDAEAGSRARVLLERLQNRARERQQREPELETTGTAGEGEAAAAGKRRRRPRRRRRVSGSATPNSEAPRAKRRKADKDVDAGRGEEAPEELSAGAEDPGANPQEDVQRPPAPGRVLGDFARRKTPKVQPFLPAWLAKPSCVKKSVTEDLTPIEDIPEVHPDLQKQLRANGITSYFPVQAAVIPALLESADHGFLIGRGGYQPSDLCVSAPTGSGKTLAFVIPVVQALLHRVVCHIRALVVLPTKELAQQVSKVFNIYTDTTPLRVALVTGQKSLAKEQESLVQKTADGFRCLADIVVATPGRLVDHIDQTPGFSLQQLRFLIIDEADRMIDSMHQSWLPRVVAAAFYSEGPTGSCALLQRTQPQALTAASTCVPQMPLQKLLFSATLTQDPEKLQRLGLYQPRLFSTRLGQQSPKDTAEVDENSGKYTFPVGLTHHYVPCRLSSKPLIVLHLVLRMSCSRALCFTNSRENSHRLYLLAQAFGGVSVAEFSSRYGPGQRKKILKQFEQGKIQLLISTDATARGIDVQGVELVINYDAPQYLRTYVHRVGRTARAGKTGQAFTLLLKVQERKFLQMVSEAGVPELTHHEIPRKLLQPLVARYETALSQLEKTVKEEQKLKAA

Molecular target: GFP-tagged G3BP1 (Ras-GTPase activating SH3 domain binding protein 1)
Test: affinity purification with mass spectrometry

How did the binding turn out when B1 was run?
The binding was “binds”.

Which binding does the source give for B2 here?
The binding was “binds”.

With B3 as the binder, how does the binding read?
The binding was “binds”.

With B4 as the binder, how does the binding read?
Its binding is “binds”.

For B5, which binding is on record?
Its binding is “binds”.

How did the binding turn out when B6 was run?
The binding was “binds”.

For B7, which binding is on record?
The binding was “binds”.

With B8 as the binder, how does the binding read?
Its binding is “binds”.

How did the binding turn out when B9 was run?
Its binding is “binds”.

With B10 as the binder, how does the binding read?
Its binding is “binds”.

B11 was tested. Which binding did it give?
The binding was “binds”.

No constants are given. Whether binding was seen depends on the method and setting. Binding seen in cells or lysates may run through a third protein. Here binding means that the protein was enriched with, or labelled near, the bait; the list need not be complete.
